In patent publication US20240325557A1, “TREATMENT OF CANCER” (INNATE PHARMA, priority 2020, published 2024):
Results are given in words; binding and its absence hold for the method and conditions named. Some entries that bind do so weakly or less than the wild type.

Sequences of proteins named here, by UniProt entry; tags and fusion partners are left off. A change or cut given only in a name is not applied to a line headed by its entry.
UniProt Q96NY8: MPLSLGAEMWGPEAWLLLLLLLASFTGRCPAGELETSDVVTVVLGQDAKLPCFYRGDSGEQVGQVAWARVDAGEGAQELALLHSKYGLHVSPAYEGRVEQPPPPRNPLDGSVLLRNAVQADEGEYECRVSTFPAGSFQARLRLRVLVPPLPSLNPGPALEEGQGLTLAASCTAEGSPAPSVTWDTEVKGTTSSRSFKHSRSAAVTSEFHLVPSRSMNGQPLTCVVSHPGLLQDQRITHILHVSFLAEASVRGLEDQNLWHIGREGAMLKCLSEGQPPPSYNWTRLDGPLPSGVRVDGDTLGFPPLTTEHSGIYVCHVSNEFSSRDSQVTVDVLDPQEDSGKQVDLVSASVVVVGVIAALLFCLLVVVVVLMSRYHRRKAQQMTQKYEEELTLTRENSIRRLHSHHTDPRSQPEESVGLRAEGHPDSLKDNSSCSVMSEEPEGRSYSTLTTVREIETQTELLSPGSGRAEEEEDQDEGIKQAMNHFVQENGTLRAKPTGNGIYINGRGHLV

Legend:
[1] = biological target: human Nectin-4 Mutant 6 (human) (UniProt Q96NY8); experiment: binding to HEK-293T cells transfected with the Nectin-4 mutant
[2] = biological target: human Nectin-4 Mutant 8 (human) (UniProt Q96NY8); experiment: as above
[3] = biological target: human Nectin-4 Mutant 1 (human) (UniProt Q96NY8); experiment: as above
[4] = biological target: human Nectin-4 Mutant 4 (human) (UniProt Q96NY8); experiment: as above
[5] = biological target: human Nectin-4 Mutant 2 (human) (UniProt Q96NY8); experiment: as above
[6] = biological target: human Nectin-4 Mutant 3 (human) (UniProt Q96NY8); experiment: as above
[7] = biological target: human Nectin-4 Mutant 9 (human) (UniProt Q96NY8); experiment: as above
[8] = biological target: Cynomolgus Nectin-4 on CHO cells (cynomolgus); experiment: flow cytometry titration on CHO cells expressing cynomolgus Nectin-4, median MFI (PE)
[9] = biological target: Cynomolgus Nectin-4 on CHO cells (cynomolgus); experiment: flow cytometry on CHO cells expressing cynomolgus Nectin-4
[10] = biological target: human Nectin-4 Mutant 7bis (human) (UniProt Q96NY8); experiment: binding to HEK-293T cells transfected with the Nectin-4 mutant
[11] = biological target: human Nectin-4 Mutant 7 (human) (UniProt Q96NY8); experiment: as above

Measured: binding

B1: antibody 5E7 (antibody, human IgG1, V domains shown)
VH: QVQLQQPGAELVKPGASVKLSCKASGYIFTSYWMHWVKQRPGQGLEWIGEIDPSDSYTNYNQKFKGKATLTLDKSSSTTYMQLSSLTSEDSAVYYCVRGYGNYGDYWGQGTTLTVSS
VL: DVVMTQAAFSNPVTLGTSASISCRSSKSLLHSNGITYLYWYLQKPGQSPQLLIYQMSNLASGVPDRFSSSGSGTDFTLRISRVEAEDVGVYYCAQNLELPWTFGGGTKLEIK
not listed: [10] | [11]
binds: all other assays above

B2: antibody 10B12 (antibody, human IgG1, V domains shown)
VH: QVQLQQPGAELVKPGASVKLSCKASGYTFTSYWMHWVKQRPGQGLEWIGEIDPSDSYTNYNQKFKGKATLTVDKSSSTAYMQLSSLTSEDSAVYYCVRGYGNYGDYWGQGTTLTVSS
VL: DIVMTQAAFSNPVTLGTSASISCRSSKSLLHSNGITYLYWYLQKPGQSPQLLIYQMSNLASGVPDRFSSSGSGTDFTLRISRVEAEDVGVYYCAQNLELPWTFGGGTKLEIK
not listed: [10] | [11]
binds: all other assays above

B3: antibody N41 (antibody, V domains shown)
VH: QVQLKQSGPGLVQPSQSLSITCTVSGFSLTNYGVHWVRQSPGKGLEWLGVIWSGGSTDYNAAFISRLSISKDTSKSQVFFKMNSLQADDTAIYYCARELIHAMDNWGQGTSVTVSS
VL: DIQMTQSPASLSVSVGETVTITCRASENIYSNLAWYQQKQGNSPQLLVFAATNLADGVPSRFSGSGSGTQYSLKINSLQSEDFGTYYCQHFWGTPTFGGGTKLEIK
not listed: [3] | [8] | [9]
binds: all other assays above
